Measurements published in US9242883B2, “Pre-treatment of sludge” (THE UNIVERSITY OF QUEENSLAND, priority 2011, dated 2016).

Description: In this experiment, a lab-scale sequencing batch reactor (SBR) with a working volume of 8 L was used in this study. The SBR was operated with a cycle time of 6-h, consisting of 10 min anoxic feed, 70 min anoxic reaction, 225 min aerobic reaction, 5 min sludge wasting, 45 min settling and 5 min decanting periods. In each cycle, 2 L of synthetic wastewater containing 400 mg COD and 50 mgN/L TKN including 40 mgNH4+-N/L, made from milk powder and ammonium chloride, along with other trace elements, was pumped into the SBR in the 10 min feed period, resulting in a hydraulic retention time (HRT) of 24 h. Before settling, around 133 ml of mixed liquor was wasted, giving rise to a sludge retention time of 15 days. The SBR was operated at a temperature of 18±2° C., with DO being controlled between 1.5-2.0 mg/L by a programmable logic controller (PLC) in the aerobic period.
50% of the wasted mixed liquor was treated by 2.0 mg HNO2-N/L for approximately 24 h, 30 h, 36 h and 42 h, respectively.
The sludge wasted from the SBR was allowed to settle. […] The other 50% of the sludge was sent to disposal.
A control SBR operating under identical conditions was also fed with the same wastewater, but there was no recycle of any sludge to this reactor.

[1] = with FNA treatment, steady state

Compound: O=NO [FNA, free nitrous acid]
- MLVSS Measured (FNA reactor, steady state): 1686 ± 8 mg/L
- MLSS Measured (FNA reactor, steady state, 50% of wasted sludge treated with approx. 2 ppm FNA, pH 6.0, approx. 24 h and recycled): 1762 ± 9 mg/L
- overall sludge production relative to control SBR (experimental SBR system): 60%
- sludge production reduction (experimental SBR vs control SBR): 40%
- effluent NH4—N [1]: 0.1 ± 0.01 mg/L
- effluent NO2—N [1]: 0.01 ± 0 mg/L
- effluent NO3—N [1]: 11.8 ± 0.4 mg/L
